Measurements published in PMC10572892.

Sequences of proteins named here, by UniProt entry; tags and fusion partners are left off.
UniProt O95835: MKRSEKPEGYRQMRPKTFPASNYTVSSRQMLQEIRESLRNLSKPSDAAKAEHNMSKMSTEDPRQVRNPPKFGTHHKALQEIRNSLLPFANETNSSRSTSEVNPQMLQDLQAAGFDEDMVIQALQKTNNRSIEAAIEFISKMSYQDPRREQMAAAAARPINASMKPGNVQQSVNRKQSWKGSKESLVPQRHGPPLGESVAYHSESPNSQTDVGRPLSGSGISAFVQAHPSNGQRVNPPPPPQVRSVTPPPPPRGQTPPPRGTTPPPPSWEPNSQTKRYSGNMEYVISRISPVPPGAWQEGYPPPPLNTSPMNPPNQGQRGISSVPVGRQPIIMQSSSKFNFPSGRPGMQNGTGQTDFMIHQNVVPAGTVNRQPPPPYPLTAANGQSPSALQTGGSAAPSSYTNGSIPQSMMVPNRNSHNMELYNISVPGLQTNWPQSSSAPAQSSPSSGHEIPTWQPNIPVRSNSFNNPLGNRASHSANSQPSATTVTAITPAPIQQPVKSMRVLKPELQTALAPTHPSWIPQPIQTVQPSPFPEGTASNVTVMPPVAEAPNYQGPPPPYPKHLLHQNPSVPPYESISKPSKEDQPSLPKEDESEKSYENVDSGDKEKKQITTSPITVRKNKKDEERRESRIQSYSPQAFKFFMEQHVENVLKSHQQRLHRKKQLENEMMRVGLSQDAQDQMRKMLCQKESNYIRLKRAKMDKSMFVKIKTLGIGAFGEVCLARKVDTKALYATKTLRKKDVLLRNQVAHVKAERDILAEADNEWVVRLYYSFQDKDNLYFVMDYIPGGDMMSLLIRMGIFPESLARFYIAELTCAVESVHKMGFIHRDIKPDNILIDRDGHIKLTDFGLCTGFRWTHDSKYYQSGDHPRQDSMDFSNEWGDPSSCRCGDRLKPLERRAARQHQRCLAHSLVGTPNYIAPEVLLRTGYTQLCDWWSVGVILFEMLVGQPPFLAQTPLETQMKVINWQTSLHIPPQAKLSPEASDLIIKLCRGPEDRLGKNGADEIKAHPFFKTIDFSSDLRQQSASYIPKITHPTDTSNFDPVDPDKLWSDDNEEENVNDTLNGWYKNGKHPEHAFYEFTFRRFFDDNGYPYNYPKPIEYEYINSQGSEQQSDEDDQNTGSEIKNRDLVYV
UniProt P35240: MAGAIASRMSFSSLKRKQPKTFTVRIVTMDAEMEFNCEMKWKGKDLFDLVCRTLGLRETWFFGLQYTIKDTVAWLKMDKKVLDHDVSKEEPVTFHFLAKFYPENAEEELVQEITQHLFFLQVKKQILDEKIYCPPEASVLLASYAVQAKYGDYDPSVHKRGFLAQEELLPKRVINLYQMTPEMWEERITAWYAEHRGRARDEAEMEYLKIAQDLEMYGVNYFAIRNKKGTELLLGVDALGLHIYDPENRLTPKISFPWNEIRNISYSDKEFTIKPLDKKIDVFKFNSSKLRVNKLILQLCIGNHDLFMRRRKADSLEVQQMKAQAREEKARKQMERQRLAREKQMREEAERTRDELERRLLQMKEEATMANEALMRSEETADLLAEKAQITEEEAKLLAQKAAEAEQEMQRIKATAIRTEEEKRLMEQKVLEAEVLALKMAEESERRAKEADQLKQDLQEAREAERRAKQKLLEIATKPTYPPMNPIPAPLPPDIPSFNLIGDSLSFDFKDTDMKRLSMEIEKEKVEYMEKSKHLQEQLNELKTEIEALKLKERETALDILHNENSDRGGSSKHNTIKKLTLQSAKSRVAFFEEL

Experiments:
[1] = biological target: HA-LATS1 (UniProt O95835); test: co-IP; HA-IP (anti-HA antibody, protein A/G PLUS-Agarose, 4 °C) from lysates of transfected HEK293 cells; lysis buffer 50 mM Tris pH 7.4, 150 mM NaCl, 1% Triton X-100; Western blot
[2] = biological target: HA-Merlin (UniProt P35240); test: as above

Myc-PIP5Kγ87 (from UniProt O60331-4) (enzyme)
binding [1]: binds
binding [2]: binds

No constants are given. Whether binding was seen depends on the method and setting. Binding seen in cells or lysates may run through a third protein. A result given as binding can be weak or reduced; the word gives no strength.
